Article PMC5393896
These are yes or no findings as the source states them, for the method shown. In cells and extracts the contact can be indirect. A yes stands for co-enrichment or nearness to the bait. Other partners may have been found.

Protein sequences, listed by entry. Tags and fused reporters are not part of them. Residues count along the entry.
UniProt P32381: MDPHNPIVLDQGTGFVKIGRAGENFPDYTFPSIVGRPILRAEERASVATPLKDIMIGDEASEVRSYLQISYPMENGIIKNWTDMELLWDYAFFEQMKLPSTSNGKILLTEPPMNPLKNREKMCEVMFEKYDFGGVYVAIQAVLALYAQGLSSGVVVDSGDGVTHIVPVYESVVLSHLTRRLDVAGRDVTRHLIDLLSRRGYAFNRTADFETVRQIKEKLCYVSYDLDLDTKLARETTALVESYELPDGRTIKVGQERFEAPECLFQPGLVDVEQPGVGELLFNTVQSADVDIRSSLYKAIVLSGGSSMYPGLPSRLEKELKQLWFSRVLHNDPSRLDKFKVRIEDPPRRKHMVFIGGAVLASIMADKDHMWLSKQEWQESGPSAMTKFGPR
UniProt P47117: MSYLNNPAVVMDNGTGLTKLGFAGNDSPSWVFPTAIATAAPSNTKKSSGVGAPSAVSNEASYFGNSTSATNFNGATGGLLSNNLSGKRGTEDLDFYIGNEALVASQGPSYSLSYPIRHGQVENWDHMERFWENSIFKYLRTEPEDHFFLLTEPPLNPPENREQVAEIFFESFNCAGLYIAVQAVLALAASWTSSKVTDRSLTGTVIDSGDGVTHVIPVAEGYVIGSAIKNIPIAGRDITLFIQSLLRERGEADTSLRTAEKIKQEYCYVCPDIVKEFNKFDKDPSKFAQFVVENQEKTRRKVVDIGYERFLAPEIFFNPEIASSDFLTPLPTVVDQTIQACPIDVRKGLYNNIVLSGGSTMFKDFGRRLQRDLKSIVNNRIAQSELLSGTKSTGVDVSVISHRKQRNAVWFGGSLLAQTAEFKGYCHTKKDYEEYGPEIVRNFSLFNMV
UniProt P19882, residues 26-572: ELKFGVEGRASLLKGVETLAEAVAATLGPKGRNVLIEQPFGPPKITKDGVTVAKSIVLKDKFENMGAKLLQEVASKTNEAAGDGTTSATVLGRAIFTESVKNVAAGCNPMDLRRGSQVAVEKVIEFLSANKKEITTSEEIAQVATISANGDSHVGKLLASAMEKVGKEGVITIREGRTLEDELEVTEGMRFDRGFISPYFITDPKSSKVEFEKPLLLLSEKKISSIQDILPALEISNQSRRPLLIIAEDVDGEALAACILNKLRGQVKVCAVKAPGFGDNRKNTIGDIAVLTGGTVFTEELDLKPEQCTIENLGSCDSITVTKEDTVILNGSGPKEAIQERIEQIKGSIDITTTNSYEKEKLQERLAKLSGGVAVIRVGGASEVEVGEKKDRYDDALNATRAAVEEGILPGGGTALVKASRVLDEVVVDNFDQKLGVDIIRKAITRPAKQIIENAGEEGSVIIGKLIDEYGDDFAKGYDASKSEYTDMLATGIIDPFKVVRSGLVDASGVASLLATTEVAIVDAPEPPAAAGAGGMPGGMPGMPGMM
UniProt P32599: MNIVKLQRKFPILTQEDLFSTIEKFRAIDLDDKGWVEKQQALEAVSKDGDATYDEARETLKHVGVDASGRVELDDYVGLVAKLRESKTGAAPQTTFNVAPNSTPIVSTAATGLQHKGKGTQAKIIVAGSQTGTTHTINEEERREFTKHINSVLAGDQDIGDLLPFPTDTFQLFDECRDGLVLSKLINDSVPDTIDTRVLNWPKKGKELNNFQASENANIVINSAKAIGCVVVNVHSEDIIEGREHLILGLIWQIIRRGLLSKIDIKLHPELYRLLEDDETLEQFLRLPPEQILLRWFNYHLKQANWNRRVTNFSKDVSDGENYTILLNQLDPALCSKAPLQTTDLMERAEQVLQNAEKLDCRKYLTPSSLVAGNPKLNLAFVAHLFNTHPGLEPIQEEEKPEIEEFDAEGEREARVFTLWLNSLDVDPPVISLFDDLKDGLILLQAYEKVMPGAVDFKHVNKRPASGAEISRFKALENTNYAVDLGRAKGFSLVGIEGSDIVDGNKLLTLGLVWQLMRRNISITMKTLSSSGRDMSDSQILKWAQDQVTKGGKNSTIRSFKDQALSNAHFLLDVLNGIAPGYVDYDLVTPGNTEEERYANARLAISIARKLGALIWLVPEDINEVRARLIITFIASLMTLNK
UniProt P53731: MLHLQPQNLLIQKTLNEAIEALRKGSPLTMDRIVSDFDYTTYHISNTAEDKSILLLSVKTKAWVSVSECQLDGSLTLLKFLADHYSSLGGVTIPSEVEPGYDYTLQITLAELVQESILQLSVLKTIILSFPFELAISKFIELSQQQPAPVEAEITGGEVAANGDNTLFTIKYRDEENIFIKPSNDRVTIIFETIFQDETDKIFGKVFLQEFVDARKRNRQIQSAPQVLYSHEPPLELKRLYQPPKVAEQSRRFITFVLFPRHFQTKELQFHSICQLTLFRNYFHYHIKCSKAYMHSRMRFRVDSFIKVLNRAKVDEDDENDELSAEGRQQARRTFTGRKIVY
UniProt P38328: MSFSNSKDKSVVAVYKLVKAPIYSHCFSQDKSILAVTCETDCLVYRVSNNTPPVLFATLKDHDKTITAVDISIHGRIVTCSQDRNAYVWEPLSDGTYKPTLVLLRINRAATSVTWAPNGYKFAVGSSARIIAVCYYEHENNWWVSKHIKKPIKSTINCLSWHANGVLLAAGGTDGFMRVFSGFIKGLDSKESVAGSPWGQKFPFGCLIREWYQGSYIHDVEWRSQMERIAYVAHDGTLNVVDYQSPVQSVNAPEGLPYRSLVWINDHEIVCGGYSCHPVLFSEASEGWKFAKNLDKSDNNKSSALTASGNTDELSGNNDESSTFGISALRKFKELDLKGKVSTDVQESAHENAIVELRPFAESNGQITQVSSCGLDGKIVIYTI
UniProt P25694: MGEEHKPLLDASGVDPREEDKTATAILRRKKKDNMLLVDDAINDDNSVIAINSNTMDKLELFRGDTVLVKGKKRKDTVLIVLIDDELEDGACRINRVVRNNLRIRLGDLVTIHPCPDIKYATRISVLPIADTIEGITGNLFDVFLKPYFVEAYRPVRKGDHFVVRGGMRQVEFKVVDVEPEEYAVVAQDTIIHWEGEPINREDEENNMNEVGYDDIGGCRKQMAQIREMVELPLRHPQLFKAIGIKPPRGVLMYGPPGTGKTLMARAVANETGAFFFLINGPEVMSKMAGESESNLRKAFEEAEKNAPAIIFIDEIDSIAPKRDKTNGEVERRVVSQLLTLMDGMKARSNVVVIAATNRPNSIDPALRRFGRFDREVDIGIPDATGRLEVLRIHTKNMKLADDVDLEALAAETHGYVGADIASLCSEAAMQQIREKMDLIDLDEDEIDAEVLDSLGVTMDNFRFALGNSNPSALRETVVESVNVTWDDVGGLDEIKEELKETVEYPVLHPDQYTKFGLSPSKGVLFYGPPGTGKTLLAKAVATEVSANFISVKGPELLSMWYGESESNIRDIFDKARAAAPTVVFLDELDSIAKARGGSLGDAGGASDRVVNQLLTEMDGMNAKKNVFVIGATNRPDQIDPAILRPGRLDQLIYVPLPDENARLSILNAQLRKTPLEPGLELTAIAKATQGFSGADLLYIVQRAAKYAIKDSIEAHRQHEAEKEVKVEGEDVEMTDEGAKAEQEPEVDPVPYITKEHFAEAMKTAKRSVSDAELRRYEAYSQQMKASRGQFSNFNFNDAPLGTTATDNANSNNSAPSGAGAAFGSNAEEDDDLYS

target: Sup35 translation termination factor tagged at its C-terminus with a tandem affinity purification (TAP) tag (S. cerevisiae) (UniProt P05453); test: affinity purification with mass spectrometry; Sup35-TAP affinity-purified by TAP chromatography from [PIN+][psi-] wild-type and tsa1 tsa2 mutant strains grown for 20 hours; co-purifying proteins identified by LC-MS in triplicate, kept if found in at least two of three replicates

Substance | binding
Arp2 (from UniProt P32381 1-391) | binds
Arp3 (from UniProt P47117 1-449) | binds
Hsp60 (from UniProt P19882 26-572) | binds
Sac6 (from UniProt P32599 1-642) | binds

Continued, values first:

binding | Substance
binds | Act1 (from UniProt P60010 1-375) (other; other documents disagree on this pair)
binds | Arc35 (from UniProt P53731 1-342)
binds | Arc40 (from UniProt P38328 1-384)
binds | Cdc48 (from UniProt P25694 1-835)
